Results taken from article PMC12005801, “Non‐Membrane Active Peptide Resensitizes MRSA to β‐Lactam Antibiotics and Inhibits S. aureus Virulence” (Advanced Science, 2025).

By UniProt entry, the sequences of proteins in these tests, tags left out. Residues count along the entry.
UniProt P00807, 25-281: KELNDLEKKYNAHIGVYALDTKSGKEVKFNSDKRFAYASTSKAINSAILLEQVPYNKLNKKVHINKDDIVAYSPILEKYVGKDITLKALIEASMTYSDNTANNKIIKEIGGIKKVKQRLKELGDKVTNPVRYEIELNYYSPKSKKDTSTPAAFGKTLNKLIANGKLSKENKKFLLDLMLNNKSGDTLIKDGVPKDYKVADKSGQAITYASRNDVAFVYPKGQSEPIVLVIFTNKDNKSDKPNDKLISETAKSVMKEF

How the values were obtained:
HEK293T cells = settings: concentrations up to 256 µg mL^−1
β‐lactamase = β‐lactamase (Staphylococcus aureus, UniProt P00807); assay: biochemical
mammalian RBCs = settings: 1/2 MIC (8 µg mL^−1) GN1 combined with various concentrations of β‐lactam antibiotics
[1] = system: macrophage RAW264.7 cells
human red blood cells = settings: cited from earlier work

Structure (SMILES) | Cytotoxicity (cell death) (HEK293T cells) | IC50 (β‐lactamase) | Hemolysis of mammalian erythrocytes (mammalian RBCs) | Cytotoxicity (cell death) ([1]; concentrations up to 256 µg mL^−1) | Toxicity to human red blood cells (human red blood cells) | cell survival rate ([1]; 64 µg mL^−1)
CC[C@H](C)[C@H](NC(=O)[C@H](CCCCN)NC(=O)[C@H](CCCCN)NC(=O)[C@H](Cc1ccccc1)NC(=O)[C@@H](NC(=O)[C@H](CCCCN)NC(=O)[C@H](CCCCN)NC(=O)[C@@H](NC(=O)[C@H](CC(C)C)NC(=O)[C@H](CCCCN)NC(=O)[C@H](CCCNC(=N)N)NC(=O)[C@@H](NC(=O)[C@H](CCCNC(=N)N)NC(=O)[C@H](CCCCN)NC(=O)[C@H](C)N)[C@@H](C)CC)[C@@H](C)CC)[C@@H](C)CC)C(=O)O [GN1] | no significant cell death | 2.26 µM | did not cause hemolysis | no significant cell death | non‐toxic | –
CC[C@@H](C)[C@@H](NC(=O)[C@@H](CCCCN)NC(=O)[C@@H](CCCCN)NC(=O)[C@@H](Cc1ccccc1)NC(=O)[C@H](NC(=O)[C@@H](CCCCN)NC(=O)[C@@H](CCCCN)NC(=O)[C@H](NC(=O)[C@@H](CC(C)C)NC(=O)[C@@H](CCCCN)NC(=O)[C@@H](CCCNC(=N)N)NC(=O)[C@H](NC(=O)[C@@H](CCCNC(=N)N)NC(=O)[C@@H](CCCCN)NC(=O)[C@@H](C)N)[C@H](C)CC)[C@H](C)CC)[C@H](C)CC)C(=O)O [D-GN1] | – | – | – | – | – | less than 20%
